The experiment addresses T1, fortilin, endogenous in PC3 cells (human (endogenous in PC3)) (UniProt P13693).
T1 sequence: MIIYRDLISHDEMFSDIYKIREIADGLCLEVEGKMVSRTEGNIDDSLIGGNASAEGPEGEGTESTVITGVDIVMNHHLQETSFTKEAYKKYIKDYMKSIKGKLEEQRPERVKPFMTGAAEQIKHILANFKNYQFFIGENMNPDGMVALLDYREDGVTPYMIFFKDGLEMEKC
The experiment in a line: co-IP; cleared total lysates of PC3 cells treated with 2 nM EGF-SubA for 24 h (also TG-treated cells); rabbit monoclonal anti-fortilin (EPR5540) or rabbit IgG, Dynabeads Protein G, washed four times, immunoblot.

From article PMC5446404 come the findings set out here.

Results are given in words; binding and its absence hold for the method and conditions named. In cells and extracts the contact can be indirect.

B1: NQO2, endogenous in PC3 cells (protein, UniProt P16083 1-231)
chain: MAGKKVLIVYAHQEPKSFNGSLKNVAVDELSRQGCTVTVSDLYAMNLEPRATDKDITGTLSNPEVFNYGVETHEAYKQRSLASDITDEQKKVREADLVIFQFPLYWFSVPAILKGWMDRVLCQGFAFDIPGFYDSGLLQGKLALLSVTTGGTAEMYTKTGVNGDSRYFLWPLQHGTLHFCGFKVLAPQISFAPEIASEEERKGMVAAWSQRLQTIWKEEPIPCTAHWHFGQ
Turning to B1, the binding result is listed as “no binding”.
